# The supplement of paper PMC10338343
# ± gives the standard deviation. The list shows a part of the results, in another mix than the full data. Many of these values have a large error.
# Key:
# [1] = tested on: MILI (PIWIL2) piRISC loaded with L1MC piRNA (26 nt); assay: pre-steady-state target cleavage rate (min^-1); MIWI and MILI are mouse PIWI proteins and EfPiwi is from a freshwater sponge; tags in brackets are library labels; higher = faster piRNA-guided slicing of the target; conditions: guide: L1MC piRNA 5'p-UAACUAAAUACUAUGCAAGCUGUAGG
# Method in brief: (§1)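 The pre-steady-state cleavage rate came from a burst-and-steady-state fit to pooled data from three Cleave-'n-Seq trials, in which uncleaved targets were sequenced and normalised to depth and to weakly complementary targets. Each reaction held 0.1 nM transcribed, DNA-blocked target RNA library and 1 nM active affinity-purified piRISC carrying one synthetic guide, with or without 500 nM GTSF1 partner protein, in HEPES–potassium acetate buffer at 33 °C for 0–8 or 0–960 min. k3 was capped at 0.0001 min^-1.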
# [2] = tested on: MIWI (PIWIL1) piRISC loaded with L1MC piRNA (30 nt); assay: as above; conditions: guide: L1MC piRNA 5'p-UAACUAAAUACUAUGCAAGCUGUAGGUCCU
# Method in brief: as §1
# [3] = auxiliary factor: 500 nM mouse GTSF1
# [4] = auxiliary factor: none (no GTSF1)
Sequence,"pre-steady-state target cleavage rate [1, 3]","pre-steady-state target cleavage rate [1, 4]","pre-steady-state target cleavage rate [2, 3]","pre-steady-state target cleavage rate [2, 4]"
UCCUGGAUCAGCUUGCAUAGUUAAUAGAAA,0.00273 ± 0.0047,0.00105 ± 0.0059,0.00192 ± 0.0058,0.00115 ± 0.0038
UCCUGGAUGUCGUUGCAUAGUCAUUUAGUUA,0.00441 ± 0.0039,0.00434 ± 0.0028,0.00257 ± 0.0048,0.00337 ± 0.0034
UCCUGGAUGUCGAACGUAAGUUUUUAGUAA,0.000148 ± 0.053,0.000461 ± 0.01,0.000152 ± 0.048,0.000157 ± 0.036
UCCUGGAACAGCUUGCAUAGAUAAAUCAAA [g11:g23:cont:t1A],,0.00048 ± 0.012,,0.000677 ± 0.0089
UCCUGGAUGUCGAAGCAUUGUUUUUAGUUA,0.000411 ± 0.032,,0.000392 ± 0.033,
UCCUGGAUGUCGAUGCAUAGUUUUUAGUAA,,0.00239 ± 0.0028,,0.000644 ± 0.007
UCCUGGAUGUCGUUCCAUAGUAUUUACUUA,,0.000222 ± 0.03,,0.000113 ± 0.04
UCCUGCUACAGCAACCAUAGUAUUUAGAAA,,0.000288 ± 0.014,,0.000157 ± 0.032
UCCUGGAUGUCGAACGUAUCUUUUUAGUAA,0.000184 ± 0.027,,0.000106 ± 0.047,
UCCUGGAUGAGCUUGCAUAGAUAAAUCAAA [g11:g21:cont:t1A],,0.00035 ± 0.016,,0.000202 ± 0.021
UCCUCCUACAGCAACCAUAGUAUUUAGUAA,,0.00218 ± 0.0027,,0.000951 ± 0.0056
UCCUGGAUGUCGAACGUAUGCAUUUAGUUA,,0.000265 ± 0.013,,0.000369 ± 0.011
UCCUGGAUGACGAUGCAUAGUAUUUAGUUA,,0.00304 ± 0.0031,,0.00288 ± 0.0029
UCCUGGAUCAGCUUGCAUAGUUAAAUCAAA [g10:g22:cont:t1A],,0.000969 ± 0.0057,,0.000907 ± 0.0065
UCCUGGAUGUCGAACGUAAGUUAUUAGUUA,,0.000235 ± 0.021,0.000126 ± 0.029,
UCCUGCUACAGGUUGCAUAGUAUUUAGAAA,,0.00222 ± 0.0026,,0.00192 ± 0.0036
UCCUGGAUGUCGAAGGAUAGAAUUUAGUUA,,0.00015 ± 0.027,,0.000359 ± 0.016
UCCUGGAUGUCGAACGUAAGAUAUUUAGUUA,,< 0.0001,0.000223 ± 0.017,
UCCUGGUACAGCUUGCAAUCUAUUUUCAAA,,0.000806 ± 0.011,,0.000171 ± 0.017
UCCUGCUACAGCUUGCAUAGAUUUUAGUAA,,0.00091 ± 0.0067,,0.00158 ± 0.0044
UCCUGGAUGUCGAACGUUAGUGUUUAGUUA,,0.000349 ± 0.012,,0.000222 ± 0.023
UCCUGGAACAGCUUGCAUUCAUAAAUCAAA [g13:g23:cont:t1A],,0.000312 ± 0.013,,0.000269 ± 0.011
UCCUCCUACAGCUUGCAUACAUAAAUCAAA [g12:g26:cont:t1A],,0.000679 ± 0.007,,0.000284 ± 0.011
UCCUGGAUCAGCUUGCAUACAAUUUACAAA,,0.00073 ± 0.0073,,0.00109 ± 0.0071
UCCUGGAACAGCUUGGUUAGUAUUUUCAAA,,0.00109 ± 0.0063,,0.000674 ± 0.0052
UCCUGGAUGAGCAUGCAUAGUAUUUAGAAA,,0.00148 ± 0.004,,0.00165 ± 0.0041

# Reprinted at random: three records from the list.
Sequence,"pre-steady-state target cleavage rate [1, 3]","pre-steady-state target cleavage rate [1, 4]","pre-steady-state target cleavage rate [2, 3]","pre-steady-state target cleavage rate [2, 4]"
UCCUGGAUGAGCUUGCAUAGAUAAAUCAAA [g11:g21:cont:t1A],,0.00035 ± 0.016,,0.000202 ± 0.021
UCCUGGAUGAGCAUGCAUAGUAUUUAGAAA,,0.00148 ± 0.004,,0.00165 ± 0.0041
UCCUGGAACAGCUUGGUUAGUAUUUUCAAA,,0.00109 ± 0.0063,,0.000674 ± 0.0052

# Next part:

Sequence,"pre-steady-state target cleavage rate [1, 3]","pre-steady-state target cleavage rate [1, 4]","pre-steady-state target cleavage rate [2, 3]","pre-steady-state target cleavage rate [2, 4]"
UCCUCCUACAGCAACCAUAGUAUUUACAAA,,0.000219 ± 0.011,,0.00055 ± 0.0088
UCCUGGAUGUCCUUGGUUAGUAUUUAGUAA,,0.00239 ± 0.003,,0.0012 ± 0.006
UCCUGGAUGUCGAACGUAUCUAUUCUAGUUA,0.000188 ± 0.038,,0.000251 ± 0.03,
UCCUGCUACAGCUUGCAAUCUAUUUACAAA,,0.000157 ± 0.017,,0.000495 ± 0.016
UCCUGGAACAGCAUCCAUAGUAUUUAGUUA,,0.00189 ± 0.0028,,0.00138 ± 0.0037
UCCUGGAUGUGCUUGCAUAGUAUAAUGUAA,,0.000877 ± 0.0084,,0.00227 ± 0.0038
UCCUGCUAGAGCUUCCAUAGUAUUUAGUUA,,0.00119 ± 0.005,,0.0016 ± 0.0031
UCCUGGAUGAGCUUGCAUAGUAAAAAGUAA,,0.0013 ± 0.0048,,0.000326 ± 0.0094
UCCUGCUACAGCUUGCAUAGAUUUAGUUA,,0.0014 ± 0.0051,,0.000768 ± 0.01
UCCUGGAUGUCGAACCAUAGAUAUUUAGUUA,,0.000118 ± 0.04,,0.000383 ± 0.014
UCCUGCUACAGCUUGCAUAGUUAAUAGUAA,,0.000614 ± 0.01,,0.00186 ± 0.0046
UCCUGGAUGUCCUUGCAUAGUAUUUACAAA,,0.000831 ± 0.0058,,0.00154 ± 0.0051
UCCUGGAUGUGCUACGAUAGUAUUUAGUAA,,0.000407 ± 0.013,0.000971 ± 0.0083,
UCCUGGAACAGCUUGCAUAGAAUUUACAAA,,0.000554 ± 0.0099,,0.00186 ± 0.0054
UCCUGGAUGAGCUUGCAAUAGUAUUUAGUUA,,0.00098 ± 0.0077,,0.000574 ± 0.0047
UCCUCCUACAGCUUGCAAUCAUAAAUCAAA [g14:g26:cont:t1A],,0.000141 ± 0.018,,0.000232 ± 0.012
UCCUGGAUGUCGAACCAUAGUAAUUUGUUA,0.000389 ± 0.018,,0.000312 ± 0.021,
UCCUGCUACAGCUUGCAUAUGUAUUUAGUUA,,0.00158 ± 0.0039,,0.000797 ± 0.01
UCCUGGAUGUCGAAGCAUAAUAUUUAGUUA,,0.00056 ± 0.008,,0.000208 ± 0.0099
UCCUGGAUGUCGAACGUAAGUAUUUAUGUUA,,0.000274 ± 0.015,,0.000238 ± 0.029
UCCUGCUACAGCUAGCAUAGUAUUUACAAA,,0.00112 ± 0.0056,,0.00121 ± 0.0065
UCCUGGAUGUCGAACCAUAGUAUUAUCUUA,,0.000189 ± 0.02,,0.000258 ± 0.026
UCCUGGAUGUGCUUCGAUAGUAUUUAGAAA,,0.000618 ± 0.0088,,0.000753 ± 0.0089
UCCUGGAUGUCCUACGAUAGUAUUUAGUUA,,0.000722 ± 0.0067,,0.00093 ± 0.0062
UCCUGGAUGUCGAACCAUAGUAUUUGUUA,,0.000219 ± 0.025,,0.000335 ± 0.013
UCCUGGAUGUCGAACGUAAGUAUUUAGUAUA,0.000139 ± 0.038,,,0.000115 ± 0.056

Sequence,"pre-steady-state target cleavage rate [1, 3]","pre-steady-state target cleavage rate [1, 4]","pre-steady-state target cleavage rate [2, 3]","pre-steady-state target cleavage rate [2, 4]"
UCCUGGAUGUCGAACGUAAAUAUUUAGUUA,,0.000109 ± 0.032,,0.000536 ± 0.0089
UCCUGGAUGUCGAAGCAAAGUAUUUAGUAA,,0.00019 ± 0.023,,0.000527 ± 0.01
UCCUGGUACACCUUCCAUAGUAUUUAGUUA,,0.00141 ± 0.0074,,0.000904 ± 0.0091
UCCUGGAUGUCGAACCAUAGUAUUUACAUA,0.000289 ± 0.015,,0.000187 ± 0.024,
UCCUGGAUGUCCUUGCAUAGUAUUAAGUAA,,0.00132 ± 0.0048,,0.00113 ± 0.0062
UCCUGGAACAGCUUGCAUACUAUUUACAAA,,0.00101 ± 0.0053,,0.00233 ± 0.0039
UCCUGGAUGUCGUUGCAUAGUAAUAAGUUA,,0.00272 ± 0.0028,,0.00032 ± 0.017
UCCUGGAUGUCGAACGUUUCUAUUUAGUUA,,0.000239 ± 0.016,,0.000206 ± 0.021
UCCUGGAUGUCGAUGCUUACUAUUUAGUUA,,0.000437 ± 0.012,,0.000679 ± 0.0098
UCCUGGAUGUCGAACGUUAGUAUUUCGUUA,,< 0.0001,,0.000101 ± 0.058
UCCUGGUACAGCUUGCAUAGAUUUAGUUA,,0.00204 ± 0.0037,,0.00108 ± 0.0072
UCCUGGAACAGCUAGCAUAGUAUUUUCAAA,,0.001 ± 0.0055,,0.00109 ± 0.0057
UCCUGGUACAGCUUGCAUUCUAUUUACAAA,,0.00101 ± 0.0089,,0.000219 ± 0.012
UCCUGGUACACCUUGCAUAGUAUUUAGAAA,,0.00116 ± 0.0063,,0.00201 ± 0.0038
UCCUGGAUGUCGAACUAUAGUAUUUAGUUA,0.000412 ± 0.015,,0.00101 ± 0.0061,
UCCUGGAUGUCGAACCUUAGUAUUUUGUUA,,0.000324 ± 0.015,,0.000467 ± 0.013
UCCUGGAUGUCGAAGCAUAGUUUUUAGAUA,,0.000242 ± 0.015,,0.000562 ± 0.0089
UCCUGGAUGUCGAAGCUUAGUAUUUACUUA,0.000134 ± 0.07,,,0.000338 ± 0.014
UCCUGGAUGUGCUUGCAUAGUUAAUAGUAA,,0.000737 ± 0.0087,,0.00101 ± 0.0078
UCCUGGUACAGCUUGCAUUCAAUUUACAAA,,0.000717 ± 0.0093,,0.000202 ± 0.017
UCCUGGAUGUCGAACCAUACUAUUUAGUAA,,0.00024 ± 0.016,,0.000316 ± 0.012
UCCUGGAAGUCCUUGCAUAGUAUUUAGAAA,,0.00158 ± 0.0036,,0.00214 ± 0.003
UCCUGGAUCAGCUUGCAUAGAUAAAUCAAA [g11:g22:cont:t1A],,0.000259 ± 0.0084,,0.000283 ± 0.011
UCCUGGAUGUCGAACCAUACUUUUUAGUUA,,0.000226 ± 0.015,,0.000336 ± 0.012
UCCUGCUACAGCUUGCAUACUAUUUUCAAA,,0.0012 ± 0.0045,,0.00145 ± 0.0048
